Results: paper PMC7819943, “Rice protein-binding microarrays: a tool to detect cis-acting elements near promoter regions in rice”
The list shows a part of the results.

Target: T1, OsSMF1 (Oryza sativa, UniProt Q6ZLB0 1-436)
T1 sequence: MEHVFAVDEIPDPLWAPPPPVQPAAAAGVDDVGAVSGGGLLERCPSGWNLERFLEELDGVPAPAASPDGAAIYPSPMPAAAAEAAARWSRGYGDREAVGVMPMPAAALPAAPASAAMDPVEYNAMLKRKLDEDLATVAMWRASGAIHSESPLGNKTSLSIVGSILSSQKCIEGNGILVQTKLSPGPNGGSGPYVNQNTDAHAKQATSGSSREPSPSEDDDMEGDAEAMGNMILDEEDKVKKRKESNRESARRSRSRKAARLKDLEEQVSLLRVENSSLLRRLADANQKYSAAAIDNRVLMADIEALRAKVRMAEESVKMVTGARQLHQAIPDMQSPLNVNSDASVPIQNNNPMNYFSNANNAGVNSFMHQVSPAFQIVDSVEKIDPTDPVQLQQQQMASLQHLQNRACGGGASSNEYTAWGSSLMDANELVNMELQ
Test: protein-binding microarray (RPBM); PBS, 2% BSA, 51.3 ng/ul salmon testes DNA, 50 uM zinc acetate, 200 nM TF, 25 C, 1 h; high values mean tight binding
Details: protein: recombinant; tags: N-terminal polyhistidine and DsRed monomer fusion (pET32a); chain copies: 2; label: CyDye5-dUTP incorporated in the synthesized complementary strand; 3' TTTTT single-stranded linker to array surface; dsDNA, one strand shown
Procedure, shortened: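 Transcription factors were made in E. coli BL21-CodonPlus as N-terminal fusions to a polyhistidine tag and DsRed, then purified on Ni–NTA. After primer extension with Cy5-dUTP and blocking with 2% BSA, a custom Agilent array was exposed for 1 h at 25 °C to 200 nM protein in PBS, 2% BSA, salmon testes DNA and 50 µM zinc acetate. Washed arrays were scanned on an Axon 4000B, and the binding signal is per-feature fluorescence intensity in arbitrary units.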

| Sequence | binding signal |
| --- | --- |
| AATGTTCATCAGTTGACGTATTGGGCGATCTGTTGGAATCCGGAGTCACCTAGTGCAG | 8640 fluorescence intensity (a.u.) |
| TCTGGGTGAAACACTGAAACCTCCAAACGCCAGTCACCGGCGGAGTCACCTAGTGCAG | 3610 fluorescence intensity (a.u.) |
| CTGCGTTACTTCGACATTGCCCGACGTGTTGACTGTGTTGCGGAGTCACCTAGTGCAG | 4070 fluorescence intensity (a.u.) |
| CCTCGCACATGGCCTCCCACATCGATGTGTCAACATAGGCCGGAGTCACCTAGTGCAG | 4360 fluorescence intensity (a.u.) |
| CTTACCAAATTTTAGCAGCGCCAAAATTTTGGTAAATTGGCGGAGTCACCTAGTGCAG | 3380 fluorescence intensity (a.u.) |
| TAAAGATTCAAGGCCATGACGCCATGAAGATTCAAGGCCCCGGAGTCACCTAGTGCAG | 4000 fluorescence intensity (a.u.) |
| TCCTCGTCGCCGTCGTCGTGGCGACGTGGGCAACCGACGCCGGAGTCACCTAGTGCAG | 4810 fluorescence intensity (a.u.) |
| GCATCGCCATCGCCGCGTGGTGGCGCACCATTCGCGTCACCGGAGTCACCTAGTGCAG | 5300 fluorescence intensity (a.u.) |
| TAAGTAAGGAACGTGGATATTTGTATTTTGTAATGGAATTCGGAGTCACCTAGTGCAG | 3170 fluorescence intensity (a.u.) |
| CGACTTCTTGACGAGGATGTTGTCGGCGTGTCGGTCGATGCGGAGTCACCTAGTGCAG | 3450 fluorescence intensity (a.u.) |
| GTAACATGGTGATTCAGCACTCCTGGTGAAGTTGTGACATCGGAGTCACCTAGTGCAG | 5470 fluorescence intensity (a.u.) |
| ACCACTCTCCGCCTCCCTGGCCGCCGTCGCGCCGGGTCGACGGAGTCACCTAGTGCAG | 9860 fluorescence intensity (a.u.) |
| ACCTTGTACTTTTGTCTACATATGTGTCATTCTATCTTGGCGGAGTCACCTAGTGCAG | 5120 fluorescence intensity (a.u.) |
| TGCAGTAGGCGGCCGAGCTCCTGGTTGTCGGCGTCCAGCGCGGAGTCACCTAGTGCAG | 5160 fluorescence intensity (a.u.) |
| GAGATTGTGTGTGTATAGAATGAGTTGTGAATTTGGTAATCGGAGTCACCTAGTGCAG | 3540 fluorescence intensity (a.u.) |
| CAATTTGGCAGGTGGGTACAATTTGGTGTAAGAACTTGAGCGGAGTCACCTAGTGCAG | 3280 fluorescence intensity (a.u.) |
| GGCTAATTCGATCTGACATGGCACCGATGTGGGCGCTTACCGGAGTCACCTAGTGCAG | 9740 fluorescence intensity (a.u.) |
| AACAAAAGGCAAGGACAGGGAGCTGGCACGTCACTGACCGCGGAGTCACCTAGTGCAG | 4340 fluorescence intensity (a.u.) |
| CTACTTCCTCCGTTTCATAATGTAAGTCATTCTAGCATTTCGGAGTCACCTAGTGCAG | 3170 fluorescence intensity (a.u.) |
| TTAAACGTTCGATATAATAGGGTGTACAAGTTTTACGTGGCGGAGTCACCTAGTGCAG | 14300 fluorescence intensity (a.u.) |
| TGACCGTGTGTGTTGCGTAATCAAACTATGATATCTTCTTCGGAGTCACCTAGTGCAG | 8350 fluorescence intensity (a.u.) |
| TGGGATTAACCGAGGTGGTGTGTGGTGATGTGTACGAGGACGGAGTCACCTAGTGCAG | 5400 fluorescence intensity (a.u.) |
| GAACACAGCTATAGAGTCAGTCCAGTCAGCCAGCCAGGGGCGGAGTCACCTAGTGCAG | 6100 fluorescence intensity (a.u.) |
| ATTACAAGCACAAGGTGGGTTTATTATTTGAGTGCTATATCGGAGTCACCTAGTGCAG | 22400 fluorescence intensity (a.u.) |
| ATTGCTCCAGGCCAAGCACGCTTAACCCTGGAGTTTTCGGCGGAGTCACCTAGTGCAG | 3800 fluorescence intensity (a.u.) |
| CCTCCTGGCACTAAAGAGAAGTTATGGATGATGCAAGACCCGGAGTCACCTAGTGCAG | 3450 fluorescence intensity (a.u.) |
| TCACCACCAACAAGAATGTCCATGTCATCCTTCCACCATCCGGAGTCACCTAGTGCAG | 4730 fluorescence intensity (a.u.) |

| Sequence | binding signal |
| --- | --- |
| GGTGACCCATAGATAAGCCCACATAACCAACTCATCAAGCCGGAGTCACCTAGTGCAG | 27900 fluorescence intensity (a.u.) |
| CTCATCCTAAGATGATGAATTGGTGACGATGGTGATGTTCCGGAGTCACCTAGTGCAG | 4450 fluorescence intensity (a.u.) |
| CAGTATAGGCATGCTGTGCCACGTAGGCGCGCCATGTCAGCGGAGTCACCTAGTGCAG | 30600 fluorescence intensity (a.u.) |
| ACCACCACCTTCGCCACGAGCTCCACGCCGTTGCCACTGTCGGAGTCACCTAGTGCAG | 20900 fluorescence intensity (a.u.) |
| GGAAAGAGACACCTGTGTGACACGTCGTCCCGTGTAGCCACGGAGTCACCTAGTGCAG | 9750 fluorescence intensity (a.u.) |
| AGTTATATAGTTCCTGCTGCTAATGCTTCTGGTGGTCTTTCGGAGTCACCTAGTGCAG | 3910 fluorescence intensity (a.u.) |
| CGAACGGTCGTCTGCCACGTCATTTTCGCCGCCCTCTGAGCGGAGTCACCTAGTGCAG | 38100 fluorescence intensity (a.u.) |
| GTTAATTAAGTGTCGATGCTTACGTGGCAGTGATAGACGTCGGAGTCACCTAGTGCAG | 20100 fluorescence intensity (a.u.) |
| TCGAACCAACTCGACTACAATCTCGCCAGATCTGACAAGTCGGAGTCACCTAGTGCAG | 24100 fluorescence intensity (a.u.) |
| ATCACGTAGTAAACTTACCGTAAGATTGTGTGACTAGGCACGGAGTCACCTAGTGCAG | 5320 fluorescence intensity (a.u.) |
| GACAATGATCATCAGACCCAGGCACCCAGCCTTTCATTTTCGGAGTCACCTAGTGCAG | 6040 fluorescence intensity (a.u.) |
| GCCGCCTAACTCCTCTGCGGCCGCCACGTGCACGCGCCGCCGGAGTCACCTAGTGCAG | 7330 fluorescence intensity (a.u.) |
| GCATTTTATATGTTGTGAGTTGTGACCTCATTTCATTGTACGGAGTCACCTAGTGCAG | 3570 fluorescence intensity (a.u.) |
| GAGCCTGAAGAAACCAGCTCCGTCTCGATGCTCATACATACGGAGTCACCTAGTGCAG | 17100 fluorescence intensity (a.u.) |
| AGTACAATACAATACAAATCATCAAGTATAAACCAAAGGTCGGAGTCACCTAGTGCAG | 3760 fluorescence intensity (a.u.) |
| GCTACATGATTTGACTACGTGGTGCTATAGTAAACATTTGCGGAGTCACCTAGTGCAG | 5280 fluorescence intensity (a.u.) |
| AACTGATTGGCTGAGGGATGGCATCTGGTGGTGGCGCCCCCGGAGTCACCTAGTGCAG | 3220 fluorescence intensity (a.u.) |
| CGTTTGTCCTTCGATAACAGTGTGTCATGGCCCATATATACGGAGTCACCTAGTGCAG | 3980 fluorescence intensity (a.u.) |
| TCTGCCGCCGGCCGCGGCGAGGGATGGCATTGGCGTGGCGCGGAGTCACCTAGTGCAG | 3550 fluorescence intensity (a.u.) |
| ATGAAGAGGTTCTTCGGCGACACGCGGCCGCCCAACTACTCGGAGTCACCTAGTGCAG | 3440 fluorescence intensity (a.u.) |
| TGCTTCCCCTGTTCTGATCACCTGCGCACACGGGTGCTCACGGAGTCACCTAGTGCAG | 49200 fluorescence intensity (a.u.) |
| GTTCTACACTCTTCGATCGCCTCCGCCGCGCTCGTGGGGTCGGAGTCACCTAGTGCAG | 3670 fluorescence intensity (a.u.) |
| AATCGATTCGAAATTTCAATGAAAATTTTCCCTCCACACCCGGAGTCACCTAGTGCAG | 30600 fluorescence intensity (a.u.) |
| CAAAGCAATGCCAGTAACAAAATTAAGTACCTGGGAGCTCCGGAGTCACCTAGTGCAG | 27500 fluorescence intensity (a.u.) |
| GCCGCCGCCGTGGCCGTCGTCGTCGGCGCCATTGCCGTCGCGGAGTCACCTAGTGCAG | 3800 fluorescence intensity (a.u.) |
| CTCTGCCTCCTCTCTCCAGTGACACATATATATAGTAGCTCGGAGTCACCTAGTGCAG | 5240 fluorescence intensity (a.u.) |
| AGCGATCCAATGAGACCCACTCCGTTTTGCCGTTGGGCTACGGAGTCACCTAGTGCAG | 3150 fluorescence intensity (a.u.) |

Some of the entries so far, tab-delimited:
Sequence	binding signal
GCCGCCTAACTCCTCTGCGGCCGCCACGTGCACGCGCCGCCGGAGTCACCTAGTGCAG	7330 fluorescence intensity (a.u.)
CTCTGCCTCCTCTCTCCAGTGACACATATATATAGTAGCTCGGAGTCACCTAGTGCAG	5240 fluorescence intensity (a.u.)
